Reference: patent US11337990B2, “Human milk oligosaccharides to promote growth of beneficial bacteria” (ABBOTT LABORATORIES, priority 2010, dated 2022)
For at least one compound, name, drawing or mass did not settle the structure. Some results were stated once for a whole list of compounds, not compound by compound.

What was measured:
infant fecal bacteria = test: In vitro substrate fermentation model with infant feces (pH, SCFA, lactate); format: cell-based, human infant
B. infantis ATCC 15697 = test: Bacterial growth assay (OD600); format: cell-based, Bifidobacterium infantis; conditions: 1% carbohydrate in sMRS+cysteine
Method: (§1) Coy Laboratory Products, Grass Lake, Mich.). Subsequently, the cultures are passed twice on a semi-synthetic MRS medium ([…] which is supplemented with 1% (w/v) filter-sterilized glucose as the sole carbohydrate source. […] For bifidobacteria strains, the same procedure is followed except all media are supplemented with 0.5 g/l L-cysteine/HCl. [table] After the 2nd pass in sMRS+glucose+cysteine, the cultures are washed once with 10 mL of sterile sMRS+cysteine (no carbohydrate), resuspended in 10 ml of sterile sMRS+cysteine (no carbohydrate) and then used as a 1% inoculum. The carbohydrates are sterilized with a 0.22 micron filter and used at a 1% final concentration. Cell growth is performed in 250 μL of sMRS+cysteine covered with 50 μL of mineral oil in a Bioscreen 100-well Honeycomb plate. […] The plate reader is operated in discontinuous mode, with absorbance readings performed in 30-minute intervals, and preceded by 30-second shaking intervals at maximum speed. Controls consist of inoculated medium lacking carbohydrate. […] Maximum OD is determined by inspection of the corrected growth data. OD is determined by subtracting the initial corrected OD (time point 0) from the maximum corrected OD. Samples are grown in biologically independent triplicates and the resulting growth kinetic data are expressed as the mean of these replicates. […]

B. infantis M-63 = test: Bacterial growth assay (OD600); format: cell-based, Bifidobacterium infantis; conditions: 1% carbohydrate in sMRS+cysteine
Method: as §1

bifidobacteria strains = test: Bacterial growth assay (OD600), panel of 12 strains; format: cell-based, Bifidobacterium; conditions: 1% carbohydrate in sMRS+cysteine
Method: as §1

Row | SMILES | fermentation rate class (infant fecal bacteria) | growth / ability to ferment (OD600) (B. infantis ATCC 15697) | growth / ability to ferment (OD600) (B. infantis M-63) | growth / ability to ferment (OD600) (bifidobacteria strains)
1 | CC(=O)N[C@H]1C([C@H](O)[C@H](O)CO)O[C@@](OCC2O[C@@H](O[C@@H]3C(CO)OC(O)C(O)[C@H]3O)C(O)[C@@H](O)[C@H]2O)(C(=O)[O-])C[C@H]1O.[Na+] (stereo in doubt) [6′SL, α-(2-6′)-N-Acetylneuraminyl-lactose sodium salt] | Medium-fermented (medium-fermented oligosaccharides generally have a fermentation rate of from 1,500 μg/g of dry matter/hour to 4,000 μg/g of dry matter/hour) |  |  | 
2 | CC(=O)N[C@H]1[C@H]([C@H](O)[C@H](O)CO)OC(O)(C(=O)O)C[C@@H]1O (some centres unmarked) [sialic acid, reference compound] |  | not able to ferment | not able to ferment | None of the bifidobacteria are able to ferment
3 | CC(=O)N[C@H]1[C@H]([C@H](O)[C@H](O)CO)O[C@@](O[C@H]2[C@@H](O)[C@@H](CO)O[C@@H](O[C@H]3[C@H](O)[C@@H](O)C(O)O[C@@H]3CO)[C@@H]2O)(C(=O)O)C[C@@H]1O (some centres unmarked) [3′SL, 3′-Sialyllactose] | Medium-fermented (medium-fermented oligosaccharides generally have a fermentation rate of from 1,500 μg/g of dry matter/hour to 4,000 μg/g of dry matter/hour) |  |  | 
